The mice bore no tumour; each value counts animals alive of those treated. Counts of survivors are from the toxicity check (mostly the fifth day) where no day follows; animals may have died later. Schedules are NCI's codes, taken here to give the interval after Q, in days (D) or hours (H), and the number of doses after X. Some entries hold several experiments; the values are given in rising order. Marks such as (2×) say how often a value occurs here.
Test system: CD2F1 mice, nontumored, toxicity/survival
Experiment: NCI In Vivo Anticancer Drug Screen. Data for tumor model Nontumored Animals (Toxicity Test) in CD2F1 (CDF1) mice
[1] = dose: 1.0 mg/kg/injection, schedule: Q01DX001 (ip), vehicle: DMSO
[2] = dose: 10.0 mg/kg/injection, schedule: Q01DX001 (ip), vehicle: DMSO
[3] = dose: 100.0 mg/kg/injection, schedule: Q01DX001 (ip), vehicle: DMSO

Q: Which results are given for `COc1ccc2c(c1OC(C)=O)-c1cc(OC(C)=O)cc3c1C(C2)N(C)CC3` (configuration not stated)?
A: survivor count [1]: 2 of 2; survivor count [2]: 2 of 2; survivor count [3]: 2 of 2

Q: With `Nc1nc(=S)c2[nH]cnc2[nH]1` as the molecule, how does the survivor count (dose: 0.52 mg/kg/injection, schedule: Q01DX009 (ip), vehicle: acid diluted with saline) read?
A: 5 of 5

Q: What about the survivor count (dose: 0.86 mg/kg/injection, schedule: Q01DX009 (ip), vehicle: acid diluted with saline) of the same molecule?
A: 5 of 5

Q: What about the survivor count (dose: 1.44 mg/kg/injection, schedule: Q01DX009 (ip), vehicle: acid diluted with saline) of the same molecule?
A: 5 of 5

Q: And the survivor count (dose: 2.4 mg/kg/injection, schedule: Q01DX009 (ip), vehicle: acid diluted with saline)?
A: 5 of 5

Q: And the survivor count (dose: 4.0 mg/kg/injection, schedule: Q01DX009 (ip), vehicle: acid diluted with saline)?
A: 5 of 5

Q: `CC(=O)Nc1ncc2ccccc2c1-c1ccc(N)cc1` was tested. Which survivor count [1] did it give?
A: 2 of 2

Q: And the survivor count [2]?
A: 2 of 2

Q: What about the survivor count [3] of the same molecule?
A: 2 of 2

Q: Which survivor count (dose: 4.5 mg/kg/injection, schedule: Q03HX024 (ip), vehicle: Klucel (hydroxypropylcellulose) (HPC)) does the source give for `Cc1cnc(/C=N\NC(N)=S)c2cccc(N)c12` here?
A: 5 of 5

Q: What about the survivor count (dose: 6.7 mg/kg/injection, schedule: Q03HX024 (ip), vehicle: Klucel (hydroxypropylcellulose) (HPC)) of the same molecule?
A: 6 of 6

Q: And the survivor count (dose: 10.0 mg/kg/injection, schedule: Q03HX024 (ip), vehicle: Klucel (hydroxypropylcellulose) (HPC))?
A: 6 of 6

Q: And the survivor count (dose: 15.0 mg/kg/injection, schedule: Q03HX024 (ip), vehicle: Klucel (hydroxypropylcellulose) (HPC))?
A: 0 of 6

Q: And the survivor count (dose: 22.5 mg/kg/injection, schedule: Q03HX024 (ip), vehicle: Klucel (hydroxypropylcellulose) (HPC))?
A: 1 of 6

Q: What about the survivor count (dose: 33.8 mg/kg/injection, schedule: Q03HX024 (ip), vehicle: Klucel (hydroxypropylcellulose) (HPC)) of the same molecule?
A: 1 of 6

Q: `O=CC(NC(=O)N(CCCl)N=O)C(O)C(O)C(O)CO` (configuration not stated) was tested. Which survivor count (dose: 7.0 mg/kg/injection, schedule: Q01DX001 (ip), vehicle: saline) did it give?
A: 10 of 10 and 6 of 6

Q: What about the survivor count (dose: 7.5 mg/kg/injection, schedule: Q01DX001 (ip), vehicle: saline) of the same molecule?
A: 8 of 8

Q: And the survivor count (dose: 11.0 mg/kg/injection, schedule: Q01DX001 (ip), vehicle: saline)?
A: 10 of 10 and 6 of 6

Q: What about the survivor count (dose: 15.0 mg/kg/injection, schedule: Q01DX001 (ip), vehicle: saline) of the same molecule?
A: 8 of 8

Q: And the survivor count (dose: 16.0 mg/kg/injection, schedule: Q01DX001 (ip), vehicle: saline)?
A: 10 of 10 (2×) and 6 of 6 (2×)

Q: What about the survivor count (dose: 20.0 mg/kg/injection, schedule: Q01DX001 (ip), vehicle: saline) of the same molecule?
A: 10 of 10

Q: What about the survivor count (dose: 24.0 mg/kg/injection, schedule: Q01DX001 (ip), vehicle: saline) of the same molecule?
A: 10 of 10, 6 of 6 (2×), 9 of 9

Q: And the survivor count (dose: 25.0 mg/kg/injection, schedule: Q01DX001 (ip), vehicle: saline)?
A: 4 of 4

Q: What about the survivor count (dose: 28.0 mg/kg/injection, schedule: Q01DX001 (ip), vehicle: saline) of the same molecule?
A: 10 of 10

Q: What about the survivor count (dose: 30.0 mg/kg/injection, schedule: Q01DX001 (ip), vehicle: saline) of the same molecule?
A: 8 of 8

Q: And the survivor count (dose: 36.0 mg/kg/injection, schedule: Q01DX001 (ip), vehicle: saline)?
A: 8 of 10, 10 of 10, 6 of 6 (2×)

Q: What about the survivor count (dose: 41.6 mg/kg/injection, schedule: Q01DX001 (ip), vehicle: saline) of the same molecule?
A: 4 of 4

Q: What about the survivor count (dose: 54.0 mg/kg/injection, schedule: Q01DX001 (ip), vehicle: saline) of the same molecule?
A: 10 of 10 and 6 of 6

Q: And the survivor count (dose: 60.0 mg/kg/injection, schedule: Q01DX001 (ip), vehicle: saline)?
A: 8 of 8

Q: And the survivor count (dose: 69.4 mg/kg/injection, schedule: Q01DX001 (ip), vehicle: saline)?
A: 4 of 4

Q: And the survivor count (dose: 81.0 mg/kg/injection, schedule: Q01DX001 (ip), vehicle: saline)?
A: 10 of 10 and 6 of 6

Q: And the survivor count (dose: 120.0 mg/kg/injection, schedule: Q01DX001 (ip), vehicle: saline)?
A: 10 of 10 and 6 of 6

Q: Which results are given for `CCNc1ncc2ccccc2c1-c1ccc(N2CCN(CCCl)CC2)cc1`?
A: survivor count (dose: 1.0 mg/kg/injection, schedule: Q01DX001 (ip), vehicle: saline + alcohol): 2 of 2; survivor count (dose: 10.0 mg/kg/injection, schedule: Q01DX001 (ip), vehicle: saline + alcohol): 2 of 2; survivor count (dose: 100.0 mg/kg/injection, schedule: Q01DX001 (ip), vehicle: saline + alcohol): 2 of 2

From PubChem BioAssay AID188 (DTP/NCI, 2004)
